Experimental data from publication PMC5727232.
For some assays here: Tags and fusion partners may be left off the protein sequences shown. For some assays here: Construct, isoform or probe ends are uncertain for at least one entry. For some assays here: At least one verdict was read from the data and is not stated in words by the source.

Chains of the proteins cited; added tags and fusions are not shown. Residues count along the entry.
UniProt Q99717, 11-143: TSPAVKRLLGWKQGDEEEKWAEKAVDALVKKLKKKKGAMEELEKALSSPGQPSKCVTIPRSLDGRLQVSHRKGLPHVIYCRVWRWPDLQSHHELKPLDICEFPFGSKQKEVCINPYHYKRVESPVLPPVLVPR
UniProt O15198, 14-144: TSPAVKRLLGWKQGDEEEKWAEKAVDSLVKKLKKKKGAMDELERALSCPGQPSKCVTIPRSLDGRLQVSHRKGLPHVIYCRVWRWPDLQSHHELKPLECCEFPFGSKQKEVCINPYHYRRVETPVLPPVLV
UniProt Q15797, 10-142: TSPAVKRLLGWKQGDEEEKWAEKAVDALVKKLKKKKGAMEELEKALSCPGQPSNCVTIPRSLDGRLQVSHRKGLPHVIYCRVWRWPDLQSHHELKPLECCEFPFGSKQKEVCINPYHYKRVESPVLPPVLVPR

Columns and labels:
[1] = tested on: Amphimedon Smad4 MH1 domain (Amphimedon queenslandica); test: EMSA; conditions: EMSA: 20 mM Tris pH 7.2, 80 mM NaCl, 2 mM DTT, 7.5 nM Cy5-DNA, 30 min room temperature, gel at 20 C, recombinant protein, protein details: N-terminal His-TEV, cleaved
[2] = target: T1, Smad4 MH1 domain (Homo sapiens) (UniProt Q13485); test: EMSA; conditions: EMSA: 20 mM Tris pH 7.2, 80 mM NaCl, 2 mM DTT, 7.5 nM Cy5-DNA, 30 min room temperature, gel at 20 C; recombinant protein; residues 10-140; protein details: N-terminal His, cleaved (TEV or 3C); label: 5' Cy5
T1 sequence (looked up): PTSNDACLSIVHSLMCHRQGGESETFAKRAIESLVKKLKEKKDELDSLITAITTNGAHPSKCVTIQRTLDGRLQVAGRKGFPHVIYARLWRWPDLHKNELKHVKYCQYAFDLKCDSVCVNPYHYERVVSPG

[3] = target: Smad5 MH1 domain (Homo sapiens) (UniProt Q99717); test: EMSA; conditions: EMSA: 20 mM Tris pH 7.2, 80 mM NaCl, 2 mM DTT, 7.5 nM Cy5-DNA, 30 min room temperature, gel at 20 C, recombinant protein, residues 11-143, protein details: N-terminal His-TEV, cleaved
[4] = target: Smad8/9 MH1 domain (Homo sapiens) (UniProt O15198); test: EMSA; conditions: EMSA: 20 mM Tris pH 7.2, 80 mM NaCl, 2 mM DTT, 7.5 nM Cy5-DNA, 30 min room temperature, gel at 20 C, recombinant protein, residues 14-144, protein details: N-terminal His-TEV, cleaved
[5] = target: Smad1 MH1 domain (Homo sapiens) (UniProt Q15797); test: EMSA; conditions: EMSA: 20 mM Tris pH 7.2, 80 mM NaCl, 2 mM DTT, 7.5 nM Cy5-DNA, 30 min room temperature, gel at 20 C, recombinant protein, residues 10-142, protein details: N-terminal His-TEV, cleaved
[6] = target: T2, Trichoplax Smad4 MH1 domain (Trichoplax adhaerens) (UniProt B3S7S5); test: EMSA; conditions: EMSA: 20 mM Tris pH 7.2, 80 mM NaCl, 2 mM DTT, 7.5 nM Cy5-DNA, 30 min room temperature, gel at 20 C; recombinant protein; residues 1-151; protein details: N-terminal His-TEV, cleaved; label: 5' Cy5 in EMSA
T2 sequence (looked up): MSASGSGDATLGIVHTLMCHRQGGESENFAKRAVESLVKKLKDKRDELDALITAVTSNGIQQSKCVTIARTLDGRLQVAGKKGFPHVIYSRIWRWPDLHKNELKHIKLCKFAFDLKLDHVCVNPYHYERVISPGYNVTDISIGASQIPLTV

[7] = target: T2, Trichoplax Smad4 MH1 domain (Trichoplax adhaerens); test: X-ray crystallography (2.43 A); conditions: same GGCGC DNA as human Smad4 complex; recombinant protein; residues 1-151; protein details: N-terminal His-TEV, cleaved
[8] = target: T1, Smad4 MH1 domain (Homo sapiens); test: ITC; conditions: ITC: Tris pH 7.0, 20 C; recombinant protein; residues 10-140; protein details: N-terminal His, cleaved (TEV or 3C)

“TTAAGGCCGGGGCCGCGCCGGGAATT (double strand) [GC1 core]”: binds ([1]; label: 5' Cy5); binds [2]; binds ([3]; label: 5' Cy5). “TTAAGGCCGGGGCCGCGCCGGGAATT (double strand) [GC1 core]”: binds ([4]; label: 5' Cy5); binds ([5]; label: 5' Cy5).
“TGCAGTCTAGACTGCA (double strand) [SBE / GTCT]”: binds ([1]; label: 5' Cy5 in EMSA); binds ([3]; label: 5' Cy5 in EMSA); binds ([4]; label: 5' Cy5 in EMSA). “TGCAGTCTAGACTGCA (double strand) [SBE / GTCT]”: binds [6]; binds ([5]; label: 5' Cy5 in EMSA).
“TGTGTCAGACGCTCAGCT (double strand) [CAGAC-DE]”: binds [2].
“TGCAGGCGCCTGCA (double strand) [BRE-GGCGCC]”: binds ([3]; label: 5' Cy5); binds ([4]; label: 5' Cy5); binds ([5]; label: 5' Cy5).
“ATTAGGCCGCCCGCCCAGCA (double strand) [GC2 core]”: binds [2].
“ATGCGGGCGCGCCCGCAT (double strand) [GGCGC-XRAY-Smad4 18mer]”: binds [7].
Sequence “TGCAGGCGCGCCTGCA (double strand) [GGCG / GGCGC-XRAY-Smad3 16mer]” has a Kd [8] of 160 nM.
